Results published in the supplement of paper PMC12819154, “High-throughput peptide-centric local stability assay extends protein–ligand identification to membrane proteins, tissues and bacteria” (Nature Structural & Molecular Biology, 2025).
The other results are listed elsewhere or left out. Most entries show no effect beyond the scatter of the controls.

Chains of the proteins cited; added tags and fusions are not shown. Lines headed by an entry give the natural chain unless they say otherwise; changes in a name come on top.
UniProt Q9JKV5: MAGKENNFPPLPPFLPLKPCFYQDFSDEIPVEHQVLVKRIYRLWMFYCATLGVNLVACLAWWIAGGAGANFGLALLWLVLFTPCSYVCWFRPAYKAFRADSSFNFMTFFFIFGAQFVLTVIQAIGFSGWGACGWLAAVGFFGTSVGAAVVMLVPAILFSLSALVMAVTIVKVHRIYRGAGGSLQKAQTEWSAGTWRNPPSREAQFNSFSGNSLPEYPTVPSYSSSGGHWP
UniProt Q9EPK7: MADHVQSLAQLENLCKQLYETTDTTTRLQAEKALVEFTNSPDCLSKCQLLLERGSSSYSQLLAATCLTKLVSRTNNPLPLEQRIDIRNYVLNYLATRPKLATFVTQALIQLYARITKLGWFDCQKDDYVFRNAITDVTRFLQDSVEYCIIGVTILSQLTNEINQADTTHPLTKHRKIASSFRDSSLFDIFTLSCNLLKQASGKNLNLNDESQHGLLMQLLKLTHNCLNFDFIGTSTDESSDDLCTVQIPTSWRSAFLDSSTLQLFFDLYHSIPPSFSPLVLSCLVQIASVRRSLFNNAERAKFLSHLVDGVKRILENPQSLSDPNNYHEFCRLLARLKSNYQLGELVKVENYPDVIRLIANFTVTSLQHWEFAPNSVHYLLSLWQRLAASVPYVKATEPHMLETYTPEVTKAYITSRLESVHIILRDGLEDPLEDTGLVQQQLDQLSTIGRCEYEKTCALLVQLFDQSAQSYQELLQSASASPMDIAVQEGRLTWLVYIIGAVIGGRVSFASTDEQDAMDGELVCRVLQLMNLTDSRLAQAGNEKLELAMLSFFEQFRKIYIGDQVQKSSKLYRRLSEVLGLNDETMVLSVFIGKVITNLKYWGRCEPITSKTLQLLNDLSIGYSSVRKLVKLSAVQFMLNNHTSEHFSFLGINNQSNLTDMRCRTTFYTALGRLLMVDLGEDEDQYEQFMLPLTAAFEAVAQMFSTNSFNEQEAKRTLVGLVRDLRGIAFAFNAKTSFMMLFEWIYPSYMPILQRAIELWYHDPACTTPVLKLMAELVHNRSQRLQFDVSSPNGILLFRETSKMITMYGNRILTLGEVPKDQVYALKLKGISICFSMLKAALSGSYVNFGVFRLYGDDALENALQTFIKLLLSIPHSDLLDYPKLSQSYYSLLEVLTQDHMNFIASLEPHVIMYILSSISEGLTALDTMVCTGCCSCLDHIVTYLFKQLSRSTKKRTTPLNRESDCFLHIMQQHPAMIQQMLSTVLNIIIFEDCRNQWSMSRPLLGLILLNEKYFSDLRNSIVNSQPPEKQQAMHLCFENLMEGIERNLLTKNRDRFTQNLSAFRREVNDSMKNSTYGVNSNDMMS
UniProt Q9ES52: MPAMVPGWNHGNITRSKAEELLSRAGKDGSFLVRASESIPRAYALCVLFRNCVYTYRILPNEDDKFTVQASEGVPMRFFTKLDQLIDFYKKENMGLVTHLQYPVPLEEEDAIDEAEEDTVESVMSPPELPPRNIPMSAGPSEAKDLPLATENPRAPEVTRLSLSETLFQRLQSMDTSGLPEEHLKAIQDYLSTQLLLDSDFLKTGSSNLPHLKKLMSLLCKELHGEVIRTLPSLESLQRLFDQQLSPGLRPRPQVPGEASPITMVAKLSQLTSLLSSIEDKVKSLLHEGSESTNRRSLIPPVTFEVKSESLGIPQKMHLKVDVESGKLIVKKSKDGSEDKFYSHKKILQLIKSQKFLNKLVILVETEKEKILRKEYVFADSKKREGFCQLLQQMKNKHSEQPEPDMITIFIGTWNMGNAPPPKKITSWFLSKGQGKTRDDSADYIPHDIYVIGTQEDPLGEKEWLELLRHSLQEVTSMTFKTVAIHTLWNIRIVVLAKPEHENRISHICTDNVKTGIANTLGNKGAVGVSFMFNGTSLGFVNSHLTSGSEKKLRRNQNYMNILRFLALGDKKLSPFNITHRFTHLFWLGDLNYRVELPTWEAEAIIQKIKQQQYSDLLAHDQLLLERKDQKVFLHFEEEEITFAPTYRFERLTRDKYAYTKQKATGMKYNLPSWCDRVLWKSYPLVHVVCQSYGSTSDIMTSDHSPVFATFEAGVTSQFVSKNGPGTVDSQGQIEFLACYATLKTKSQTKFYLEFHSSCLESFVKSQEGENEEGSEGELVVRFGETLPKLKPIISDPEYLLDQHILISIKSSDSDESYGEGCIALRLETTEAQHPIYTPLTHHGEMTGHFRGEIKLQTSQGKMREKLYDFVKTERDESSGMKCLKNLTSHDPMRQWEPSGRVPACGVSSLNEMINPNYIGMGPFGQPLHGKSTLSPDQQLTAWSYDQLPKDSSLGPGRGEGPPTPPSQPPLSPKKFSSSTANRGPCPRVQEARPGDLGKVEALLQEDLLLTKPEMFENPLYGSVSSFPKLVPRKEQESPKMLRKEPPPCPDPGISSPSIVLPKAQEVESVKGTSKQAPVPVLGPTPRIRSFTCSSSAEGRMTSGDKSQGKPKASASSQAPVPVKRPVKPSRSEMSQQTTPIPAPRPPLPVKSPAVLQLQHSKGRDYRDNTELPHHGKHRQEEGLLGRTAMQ
UniProt Q9JHJ3: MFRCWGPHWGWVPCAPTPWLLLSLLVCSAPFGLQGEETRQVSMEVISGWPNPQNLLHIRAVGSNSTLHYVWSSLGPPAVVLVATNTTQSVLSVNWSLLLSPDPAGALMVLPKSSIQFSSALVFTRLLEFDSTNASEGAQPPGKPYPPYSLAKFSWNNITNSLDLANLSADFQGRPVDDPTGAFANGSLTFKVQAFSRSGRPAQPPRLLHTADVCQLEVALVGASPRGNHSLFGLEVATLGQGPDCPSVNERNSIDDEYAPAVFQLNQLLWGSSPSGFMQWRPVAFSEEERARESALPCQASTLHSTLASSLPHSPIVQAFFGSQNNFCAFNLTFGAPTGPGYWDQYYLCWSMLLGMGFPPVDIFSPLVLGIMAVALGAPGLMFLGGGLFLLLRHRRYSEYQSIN
UniProt Q9JHC9: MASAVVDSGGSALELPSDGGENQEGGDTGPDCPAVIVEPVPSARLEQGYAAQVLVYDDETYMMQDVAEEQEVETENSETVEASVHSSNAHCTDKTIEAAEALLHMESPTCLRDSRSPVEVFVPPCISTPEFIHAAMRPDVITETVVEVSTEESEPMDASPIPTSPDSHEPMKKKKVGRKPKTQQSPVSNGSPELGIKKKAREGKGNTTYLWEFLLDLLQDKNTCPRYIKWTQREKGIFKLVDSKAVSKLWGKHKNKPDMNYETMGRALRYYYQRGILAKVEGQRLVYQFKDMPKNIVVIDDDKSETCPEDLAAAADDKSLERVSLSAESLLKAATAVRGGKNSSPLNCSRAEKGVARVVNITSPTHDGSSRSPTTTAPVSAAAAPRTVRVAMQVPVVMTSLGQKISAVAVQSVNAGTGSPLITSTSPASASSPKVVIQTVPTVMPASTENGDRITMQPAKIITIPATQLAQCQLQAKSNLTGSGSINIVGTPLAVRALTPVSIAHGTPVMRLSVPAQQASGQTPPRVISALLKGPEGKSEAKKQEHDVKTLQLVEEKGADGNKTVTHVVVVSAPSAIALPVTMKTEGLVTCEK
UniProt Q9EQS3: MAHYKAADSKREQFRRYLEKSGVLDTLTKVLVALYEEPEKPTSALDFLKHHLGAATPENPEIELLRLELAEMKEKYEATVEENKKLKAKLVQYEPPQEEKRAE
UniProt Q9JLQ2: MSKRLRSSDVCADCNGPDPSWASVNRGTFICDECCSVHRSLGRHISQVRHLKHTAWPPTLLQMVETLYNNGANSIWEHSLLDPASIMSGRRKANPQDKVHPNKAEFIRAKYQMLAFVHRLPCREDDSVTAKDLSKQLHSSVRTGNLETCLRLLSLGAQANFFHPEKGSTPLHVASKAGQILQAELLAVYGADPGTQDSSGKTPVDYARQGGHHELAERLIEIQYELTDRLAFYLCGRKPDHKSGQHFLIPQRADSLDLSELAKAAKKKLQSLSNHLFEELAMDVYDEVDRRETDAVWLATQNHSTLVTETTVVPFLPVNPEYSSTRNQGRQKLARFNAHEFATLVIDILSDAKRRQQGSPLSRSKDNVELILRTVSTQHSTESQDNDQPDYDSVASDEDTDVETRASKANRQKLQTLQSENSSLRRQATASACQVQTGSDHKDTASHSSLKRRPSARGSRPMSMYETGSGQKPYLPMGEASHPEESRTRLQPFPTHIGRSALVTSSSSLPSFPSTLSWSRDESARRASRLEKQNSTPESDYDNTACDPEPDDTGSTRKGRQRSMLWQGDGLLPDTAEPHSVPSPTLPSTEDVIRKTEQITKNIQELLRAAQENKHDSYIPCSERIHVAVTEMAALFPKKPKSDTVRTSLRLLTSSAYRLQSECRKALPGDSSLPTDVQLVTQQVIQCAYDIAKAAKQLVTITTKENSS
UniProt Q9JJN5: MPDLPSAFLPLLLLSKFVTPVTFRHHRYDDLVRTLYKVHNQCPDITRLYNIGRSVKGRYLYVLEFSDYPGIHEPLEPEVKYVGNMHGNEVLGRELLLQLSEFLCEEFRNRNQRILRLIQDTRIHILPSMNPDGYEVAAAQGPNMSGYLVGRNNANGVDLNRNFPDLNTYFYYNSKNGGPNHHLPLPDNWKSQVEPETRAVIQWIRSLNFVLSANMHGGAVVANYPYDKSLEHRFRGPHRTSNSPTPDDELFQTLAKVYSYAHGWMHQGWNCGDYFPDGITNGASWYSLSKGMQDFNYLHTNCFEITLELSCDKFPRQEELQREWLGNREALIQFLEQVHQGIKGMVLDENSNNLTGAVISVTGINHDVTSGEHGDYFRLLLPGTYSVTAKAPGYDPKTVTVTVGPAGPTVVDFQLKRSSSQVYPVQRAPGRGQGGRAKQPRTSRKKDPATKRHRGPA
UniProt Q9DCC7: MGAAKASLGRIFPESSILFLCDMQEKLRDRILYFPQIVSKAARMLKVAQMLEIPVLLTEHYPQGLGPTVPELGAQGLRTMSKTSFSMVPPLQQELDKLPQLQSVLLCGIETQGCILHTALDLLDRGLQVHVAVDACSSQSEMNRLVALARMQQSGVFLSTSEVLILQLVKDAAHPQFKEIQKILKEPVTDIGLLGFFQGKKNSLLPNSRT
UniProt Q9QXT0: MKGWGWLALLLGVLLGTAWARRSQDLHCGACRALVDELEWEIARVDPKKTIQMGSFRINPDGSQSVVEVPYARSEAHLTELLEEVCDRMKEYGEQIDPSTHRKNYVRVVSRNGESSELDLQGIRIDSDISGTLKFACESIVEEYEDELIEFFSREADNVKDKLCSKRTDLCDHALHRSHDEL
UniProt Q9QWK4: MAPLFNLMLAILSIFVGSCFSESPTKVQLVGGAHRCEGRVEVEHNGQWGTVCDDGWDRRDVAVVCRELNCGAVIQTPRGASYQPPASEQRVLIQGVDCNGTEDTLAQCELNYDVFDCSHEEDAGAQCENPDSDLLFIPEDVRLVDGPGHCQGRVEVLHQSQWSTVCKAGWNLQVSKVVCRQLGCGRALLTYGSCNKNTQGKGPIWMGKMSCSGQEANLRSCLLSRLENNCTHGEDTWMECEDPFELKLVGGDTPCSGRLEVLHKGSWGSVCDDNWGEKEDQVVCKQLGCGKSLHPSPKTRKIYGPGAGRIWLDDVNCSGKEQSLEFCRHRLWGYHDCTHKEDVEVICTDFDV
UniProt Q9JLB0: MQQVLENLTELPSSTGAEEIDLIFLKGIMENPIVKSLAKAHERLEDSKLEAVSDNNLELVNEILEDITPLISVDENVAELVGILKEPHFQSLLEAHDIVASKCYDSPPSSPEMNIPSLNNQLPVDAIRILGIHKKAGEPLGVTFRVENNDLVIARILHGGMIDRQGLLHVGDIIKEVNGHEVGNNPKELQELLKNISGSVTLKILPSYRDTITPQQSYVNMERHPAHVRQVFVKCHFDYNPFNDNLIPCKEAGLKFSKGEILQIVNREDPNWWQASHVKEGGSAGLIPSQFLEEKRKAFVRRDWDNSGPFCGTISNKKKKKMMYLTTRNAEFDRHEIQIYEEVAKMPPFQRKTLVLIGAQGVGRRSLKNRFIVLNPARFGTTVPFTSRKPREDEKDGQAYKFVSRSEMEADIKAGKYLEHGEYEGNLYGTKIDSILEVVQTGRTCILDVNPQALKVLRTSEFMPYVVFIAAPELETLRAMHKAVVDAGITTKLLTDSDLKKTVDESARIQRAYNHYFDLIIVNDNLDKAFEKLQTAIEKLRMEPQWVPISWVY
UniProt Q9JK38: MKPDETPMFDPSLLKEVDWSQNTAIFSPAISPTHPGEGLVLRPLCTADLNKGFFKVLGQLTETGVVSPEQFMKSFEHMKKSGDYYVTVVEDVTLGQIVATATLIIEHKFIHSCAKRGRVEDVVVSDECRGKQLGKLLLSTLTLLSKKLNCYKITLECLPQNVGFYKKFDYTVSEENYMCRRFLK
UniProt Q9DCC4: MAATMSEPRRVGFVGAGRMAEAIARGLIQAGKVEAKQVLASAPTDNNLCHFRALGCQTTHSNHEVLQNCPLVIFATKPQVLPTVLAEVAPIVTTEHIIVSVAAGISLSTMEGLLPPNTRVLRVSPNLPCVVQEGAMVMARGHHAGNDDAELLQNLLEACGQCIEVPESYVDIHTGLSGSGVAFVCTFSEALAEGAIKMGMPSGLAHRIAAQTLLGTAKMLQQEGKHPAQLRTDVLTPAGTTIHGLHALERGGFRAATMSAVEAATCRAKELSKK

Each target was assayed with CN[C@@H]1C[C@H]2O[C@@](C)([C@@H]1OC)n1c3ccccc3c3c4c(c5c6ccccc6n2c5c31)C(=O)NC4 [staurosporine] (assay: log2 fold change of pooled soluble protein (PISA), ligand vs vehicle (log2 ratio); higher = more thermally stabilized). Conditions: ligand concentration: 20 uM; assay format: PISA pool 52.9/55.5/58.6 C.

| Target | log2 fold change of pooled soluble protein |
| --- | --- |
| UniProt Q9JKV5 | 0.661 |
| UniProt Q9JII6 | -0.0924 |
| UniProt Q9JL56 | 0.0337 |
| UniProt Q9EPK7 | 0.0637 |
| UniProt Q9ES52 | -0.135 |
| UniProt Q9JHJ3 | 0.18 |
| UniProt Q9EPQ8 | -0.236 |
| UniProt Q9JHC9 | -0.238 |
| UniProt Q9ERG0 | 0.0246 |
| UniProt Q9EQS3 | 0.157 |
| UniProt Q9DCV4 | -0.00596 |
| UniProt Q9JLQ2 | 0.414 |
| UniProt Q9DCJ9 | 0.00978 |
| UniProt Q9QXD6 | 0.0253 |
| UniProt Q9JJN5 | -0.121 |
| UniProt Q9QWR8 | 0.064 |
| UniProt Q9DCC7 | -0.0816 |
| UniProt Q9ESW8 | 0.267 |

Part of the list above, reformatted.
Target | log2 fold change of pooled soluble protein
UniProt Q9EPQ8 | -0.236
UniProt Q9JHC9 | -0.238
UniProt Q9ERG0 | 0.0246
UniProt Q9EQS3 | 0.157
UniProt Q9DCV4 | -0.00596
UniProt Q9JLQ2 | 0.414
UniProt Q9DCJ9 | 0.00978

Further records

| Target | log2 fold change of pooled soluble protein |
| --- | --- |
| UniProt Q9QUI0 | -0.0762 |
| UniProt Q9QXT0 | 0.00402 |
| UniProt Q9QXK7 | -0.931 |
| UniProt Q9QWK4 | -0.0241 |
| UniProt Q9QVP9 | -0.00464 |
| UniProt Q9JLB0 | -0.0711 |
| UniProt Q9JK38 | -0.108 |
| UniProt Q9QWG7 | -0.101 |
| UniProt Q9EST4 | 0.0379 |
| UniProt Q9ESB3 | -0.0371 |
| UniProt Q9DCE9 | -0.0946 |
| UniProt Q9DCT8 | -0.326 |
| UniProt Q9JM96 | -0.209 |
| UniProt Q9DCF9 | 0.203 |
| UniProt Q9JHI5 | -0.0229 |
| UniProt Q9EP89 | 0.0896 |
| UniProt Q9DCC4 | -0.114 |
| UniProt Q9JKC8 | 0.381 |
